Primary screen of a compound library

Each number is a percent effect as filed. How 0% and 100% were set is not recorded. Most values in the screen are low, and negative values occur. This is an unselected part of the compounds tested.

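Assay of Toxoplasma gondii numbers, read through their beta-galactosidase reporter with a colour substrate. Compounds at 50 µM. Higher reads as fewer parasites (inferred from which compounds were picked for retests). Of about 18,000 compounds tested this way, about 170 (0.94%) reached 50% or more in at least one test.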

structure,Percent Effect
O=c1cc(CN2[C@H]3CCNC[C@@H]2CC3)nc2sccn12,14.7%
CC(C)N(C)S(=O)(=O)N1CCCN(C)CC1,10.76%
CC(C)(C)CNCCS(=O)(=O)N1CCOCC1,-3.335%
CN(CCN(C)C(=O)C1CC=CC1)C(=O)C1CC=CC1,-6.626%
CNC(=O)Cn1cc(-c2ccc3c(c2)OCO3)cn1,6.661%
COCCC(=O)Nc1cc(OC)ccn1,17.72%
Cc1cccc(NC(=O)NCc2c(C)noc2C)n1,2.395%
O=S(=O)(c1cccnc1)N1CCOCC1,-0.6037%
CCC[C@H]1CN(C(=O)c2cccc(OC)c2C)C[C@@H]1N,-3.527%
Cn1cc(CCN)nn1,26.5%
CN(C)c1cccc(C(=O)NCCc2ncnn2C)c1,7.419%
CC(C)OCC(O)CN1CCc2ccc(O)cc2C1 (centres unmarked),-9.385%
CNC(=O)C(C)(C)C,-3.105%
COc1ccccc1N1CCC(N)C1 (centres unmarked),-0.2195%
NCc1ccn(-c2ccc(F)cc2)n1,-9.138%
CCSCCN1CCN(C(=O)c2cccc(O)c2)CC1,25.18%
COc1cccn(CC(=O)N2CCCCCCC2)c1=O,-0.7856%
CCCn1ncc(CN2C[C@H](OCC)[C@@H](O)C2)c1C,3.466%
COc1cccc(N2CC(N)CC2=O)c1 (centres unmarked),-3.711%
Cn1nc(C(=O)NCc2cc(Cl)ccn2)ccc1=O,0%
CC(C)c1nnc(CN2C[C@@H](C)[C@@](C)(O)C2)o1,1.193%
Cc1nc(CN2CC(S(=O)(=O)NC3CCCC3)C2)no1,-0.8014%
N#Cc1cccnc1N[C@@H]1CCOC[C@H]1OCC1CC1,-16.84%
OCC1(CNCc2ccccc2)CC1,0.9698%
CSc1ncccc1C(=O)NCCSc1nncn1C,5.625%
O=C(c1cccnc1)c1ncc[nH]1,49.88%
CC(N)CC1CCOCC1 (centres unmarked),-1.289%
CS(=O)(=O)NCC1CCCN(c2ccncc2Cl)C1 (centres unmarked),-4.007%
CN(Cc1ccsc1)C(=O)CNC(=O)c1ccc(Br)o1,5.932%
CCCn1cc(C(=O)N2CCCC(C#N)C2)c(C)n1 (centres unmarked),-7.402%
COCCCNC(=O)N1CCCN(CC(C)C)CC1,-3.234%
Cc1cccc(OCC(=O)OCC(=O)N2CCCC2)c1,-1.628%
NC1CSc2ccccc21 (centres unmarked),16.15%
CCOCCN1CCN(CC(=O)NCCC#N)CC1,-5.725%

Repeated from the top, 3 entries:

- O=c1cc(CN2[C@H]3CCNC[C@@H]2CC3)nc2sccn12 | 14.7%
- CC(C)N(C)S(=O)(=O)N1CCCN(C)CC1 | 10.76%
- CC(C)(C)CNCCS(=O)(=O)N1CCOCC1 | -3.335%

From ChEMBL document CHEMBL3988442, “University of Dundee, Small-Polar-MMV Screening Library” (2021).